Common to all, as to assay: co-IP
Assay [1] concerns the target Neogenin1-Myc (pEF-Cyto-Neogenin1-Myc) (UniProt P97798).
For assay [2], the target named is HA-tagged Dcc (pcDNA3-hDcc-3XHA) (human) (UniProt P43146).
Assay [3] addresses endogenous Neogenin (Neo1) (P14 mouse brain) (mouse (endogenous in P14 brain)) (UniProt P97798).
For assay [4], the target named is endogenous Dcc (P14 mouse brain) (mouse (endogenous in P14 brain)) (UniProt P70211).

The chains behind the UniProt entries cited, without tags or fusion partners. Residues count along the entry.
UniProt P97798, residues 37-1492: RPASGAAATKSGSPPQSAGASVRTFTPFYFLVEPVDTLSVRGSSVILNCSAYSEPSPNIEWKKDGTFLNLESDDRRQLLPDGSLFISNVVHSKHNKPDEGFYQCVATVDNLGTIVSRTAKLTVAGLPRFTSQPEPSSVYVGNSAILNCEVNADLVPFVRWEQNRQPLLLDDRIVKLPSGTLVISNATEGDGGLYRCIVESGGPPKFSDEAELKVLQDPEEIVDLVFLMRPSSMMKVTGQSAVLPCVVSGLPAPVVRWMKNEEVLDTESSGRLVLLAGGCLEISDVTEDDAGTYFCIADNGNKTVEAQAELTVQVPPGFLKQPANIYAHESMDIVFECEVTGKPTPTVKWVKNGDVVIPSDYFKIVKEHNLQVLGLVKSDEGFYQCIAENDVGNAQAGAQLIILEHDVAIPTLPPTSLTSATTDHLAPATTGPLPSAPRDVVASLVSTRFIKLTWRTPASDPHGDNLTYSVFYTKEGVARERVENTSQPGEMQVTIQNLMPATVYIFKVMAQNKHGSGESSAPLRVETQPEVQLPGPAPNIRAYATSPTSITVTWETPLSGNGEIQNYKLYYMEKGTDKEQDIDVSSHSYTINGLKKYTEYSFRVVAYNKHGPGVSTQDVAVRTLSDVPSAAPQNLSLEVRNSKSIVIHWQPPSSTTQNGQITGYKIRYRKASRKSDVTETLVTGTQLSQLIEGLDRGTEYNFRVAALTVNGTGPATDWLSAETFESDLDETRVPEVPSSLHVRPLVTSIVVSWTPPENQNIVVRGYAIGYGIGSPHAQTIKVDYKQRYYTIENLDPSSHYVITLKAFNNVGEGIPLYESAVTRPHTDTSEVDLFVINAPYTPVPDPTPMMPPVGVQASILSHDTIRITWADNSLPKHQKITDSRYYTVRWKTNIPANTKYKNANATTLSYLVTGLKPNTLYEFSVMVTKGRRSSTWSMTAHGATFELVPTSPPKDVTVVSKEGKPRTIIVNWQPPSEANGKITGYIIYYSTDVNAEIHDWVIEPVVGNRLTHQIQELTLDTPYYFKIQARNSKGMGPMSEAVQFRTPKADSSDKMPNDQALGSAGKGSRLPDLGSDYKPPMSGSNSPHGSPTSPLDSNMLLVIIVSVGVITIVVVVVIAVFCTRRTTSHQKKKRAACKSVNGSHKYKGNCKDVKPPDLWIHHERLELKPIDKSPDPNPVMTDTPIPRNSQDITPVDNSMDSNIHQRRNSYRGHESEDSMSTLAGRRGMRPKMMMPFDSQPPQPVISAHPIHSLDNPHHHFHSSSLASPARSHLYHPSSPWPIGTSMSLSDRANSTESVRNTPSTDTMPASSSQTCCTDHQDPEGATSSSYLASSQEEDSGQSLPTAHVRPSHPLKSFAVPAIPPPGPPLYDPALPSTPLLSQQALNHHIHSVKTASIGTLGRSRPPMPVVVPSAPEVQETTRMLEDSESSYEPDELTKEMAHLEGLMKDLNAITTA
UniProt P43146, residues 26-1447: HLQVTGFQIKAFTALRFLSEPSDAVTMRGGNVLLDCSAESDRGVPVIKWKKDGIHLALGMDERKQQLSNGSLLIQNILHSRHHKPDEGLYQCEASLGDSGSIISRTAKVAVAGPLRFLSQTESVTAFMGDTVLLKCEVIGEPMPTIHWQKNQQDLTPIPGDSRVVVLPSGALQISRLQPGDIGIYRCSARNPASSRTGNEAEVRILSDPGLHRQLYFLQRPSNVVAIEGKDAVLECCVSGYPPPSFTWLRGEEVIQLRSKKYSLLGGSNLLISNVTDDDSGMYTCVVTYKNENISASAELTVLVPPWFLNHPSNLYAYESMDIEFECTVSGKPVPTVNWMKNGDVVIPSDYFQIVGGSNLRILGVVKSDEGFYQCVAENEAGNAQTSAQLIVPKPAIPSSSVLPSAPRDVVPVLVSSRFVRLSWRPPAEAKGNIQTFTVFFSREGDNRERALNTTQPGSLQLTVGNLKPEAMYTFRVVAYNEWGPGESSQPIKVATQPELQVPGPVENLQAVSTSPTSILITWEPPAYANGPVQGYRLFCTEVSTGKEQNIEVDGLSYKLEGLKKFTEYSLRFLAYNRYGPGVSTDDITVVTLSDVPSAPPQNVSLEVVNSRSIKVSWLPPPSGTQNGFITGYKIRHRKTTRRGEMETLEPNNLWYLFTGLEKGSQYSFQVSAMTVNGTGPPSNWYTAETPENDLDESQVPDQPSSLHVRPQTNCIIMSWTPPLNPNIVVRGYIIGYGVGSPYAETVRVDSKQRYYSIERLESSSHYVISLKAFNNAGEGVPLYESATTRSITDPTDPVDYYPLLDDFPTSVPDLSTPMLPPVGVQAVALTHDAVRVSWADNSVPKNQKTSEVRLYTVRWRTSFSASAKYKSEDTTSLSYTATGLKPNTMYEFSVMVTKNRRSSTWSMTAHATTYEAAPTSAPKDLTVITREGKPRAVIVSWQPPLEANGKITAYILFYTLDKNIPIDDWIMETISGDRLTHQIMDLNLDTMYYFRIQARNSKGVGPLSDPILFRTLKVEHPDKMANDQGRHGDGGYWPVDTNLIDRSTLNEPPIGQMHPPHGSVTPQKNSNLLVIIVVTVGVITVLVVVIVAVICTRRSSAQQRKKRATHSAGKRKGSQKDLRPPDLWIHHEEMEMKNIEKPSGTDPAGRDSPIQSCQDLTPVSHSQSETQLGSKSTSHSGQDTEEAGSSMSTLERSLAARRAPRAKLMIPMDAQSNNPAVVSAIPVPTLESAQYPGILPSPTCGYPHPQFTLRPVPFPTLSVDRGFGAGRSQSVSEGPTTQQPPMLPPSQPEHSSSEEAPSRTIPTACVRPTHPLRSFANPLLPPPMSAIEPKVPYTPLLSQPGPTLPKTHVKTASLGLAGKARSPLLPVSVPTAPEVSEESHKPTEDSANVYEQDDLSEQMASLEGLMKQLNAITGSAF
UniProt P70211, residues 26-1447: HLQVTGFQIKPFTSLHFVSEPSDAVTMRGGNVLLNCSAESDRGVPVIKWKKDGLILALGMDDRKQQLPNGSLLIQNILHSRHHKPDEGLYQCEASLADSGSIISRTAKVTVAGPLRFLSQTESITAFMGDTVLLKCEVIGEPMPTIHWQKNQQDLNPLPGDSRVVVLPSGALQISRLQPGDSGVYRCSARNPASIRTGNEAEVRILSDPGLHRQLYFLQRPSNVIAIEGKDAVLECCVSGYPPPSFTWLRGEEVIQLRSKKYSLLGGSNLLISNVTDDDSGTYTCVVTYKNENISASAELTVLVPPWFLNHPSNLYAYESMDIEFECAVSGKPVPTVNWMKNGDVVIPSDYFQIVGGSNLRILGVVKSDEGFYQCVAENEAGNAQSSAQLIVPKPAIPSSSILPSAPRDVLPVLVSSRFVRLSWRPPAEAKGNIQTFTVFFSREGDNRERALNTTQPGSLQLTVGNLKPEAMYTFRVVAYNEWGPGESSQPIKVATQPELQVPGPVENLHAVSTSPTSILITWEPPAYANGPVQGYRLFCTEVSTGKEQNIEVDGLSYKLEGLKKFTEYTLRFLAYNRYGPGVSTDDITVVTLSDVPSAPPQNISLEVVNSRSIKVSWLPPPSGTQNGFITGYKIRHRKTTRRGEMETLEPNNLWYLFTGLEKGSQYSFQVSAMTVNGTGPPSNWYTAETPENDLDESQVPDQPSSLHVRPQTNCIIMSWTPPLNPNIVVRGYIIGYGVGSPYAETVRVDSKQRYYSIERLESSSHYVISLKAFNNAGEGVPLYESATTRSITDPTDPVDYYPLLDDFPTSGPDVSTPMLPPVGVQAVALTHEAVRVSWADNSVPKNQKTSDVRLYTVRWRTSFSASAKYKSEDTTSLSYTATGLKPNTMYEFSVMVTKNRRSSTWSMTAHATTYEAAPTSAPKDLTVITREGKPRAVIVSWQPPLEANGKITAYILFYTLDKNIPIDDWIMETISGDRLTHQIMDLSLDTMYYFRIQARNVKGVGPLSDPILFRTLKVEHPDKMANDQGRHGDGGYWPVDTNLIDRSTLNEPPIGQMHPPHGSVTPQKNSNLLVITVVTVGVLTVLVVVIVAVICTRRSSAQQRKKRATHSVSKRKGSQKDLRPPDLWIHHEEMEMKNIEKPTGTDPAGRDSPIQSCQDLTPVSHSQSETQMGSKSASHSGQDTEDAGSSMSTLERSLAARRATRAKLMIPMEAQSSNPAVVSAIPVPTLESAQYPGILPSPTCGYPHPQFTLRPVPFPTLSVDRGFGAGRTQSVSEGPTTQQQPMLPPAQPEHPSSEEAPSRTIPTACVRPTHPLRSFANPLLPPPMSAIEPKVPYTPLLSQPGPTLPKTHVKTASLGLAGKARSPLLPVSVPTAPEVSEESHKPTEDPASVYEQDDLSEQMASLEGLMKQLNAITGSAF

These are yes or no findings as the source states them, for the method shown. Binding seen in cells or lysates may run through a third protein. Some binding calls cover weakened binding; strength is not graded here.

With “HA-tagged Dcc (pcDNA3-hDcc-3XHA) (from UniProt P43146 26-1447) (receptor)”, the binding result in assay [1] was “binds”.

With “Neogenin1-Myc (pEF-Cyto-Neogenin1-Myc) (from UniProt P97798 37-1492) (receptor)”, the binding result in assay [2] is reported as “binds”.

As for “endogenous Dcc (P14 mouse brain) (from UniProt P70211 26-1447) (receptor)”, the binding entry in assay [3] is “binds”.

On to “endogenous Neogenin (Neo1) (P14 mouse brain) (from UniProt P97798 37-1492) (receptor)”, for which the binding result in assay [4] is given as “binds”.

The values are drawn from doi:10.1101/2025.11.01.686042.
